Most values lie at the floor of the assay. Slopes are relative: functional sequences can read slightly below zero.

For the data set, the system named is Saccharomyces cerevisiae PS128 hsf1 delta, HSF1(1-493) fusion. The data set can be described thus: growth estimate (transactivation domain function in HSF1 fusion, heat-shock survival) (a.u. (slope of normalised read count over time)); higher = stronger growth at 37°C, i.e. more transactivation activity. The following applies: library: random library. As for the experimental part: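 Random 60-nt DNA library encoding peptides of up to 20 aa, fused to the C-terminus of yeast HSF1 residues 1-493 (C-terminal TAD deleted) and expressed from the native HSF1 promoter on a CEN plasmid in hsf1-deleted S. cerevisiae PS128. Cells were selected at 37°C on -trp 5-FOA plates for 0, 2, 4, 6 and 8 days and amplicons were sequenced. Growth estimate is the slope of a robust linear fit of total-sum-normalised read counts (normalised to the first time point) over time, using at least 2 replicates. Sequences are classed functional (TAD activity) above a threshold of -0.13, set from stop-codon control sequences.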
As to KKSSKDLREGVVTPKG, the growth estimate is < -0.25.

Take ELVS: the growth estimate was < -0.25.

Turning to GNHKTNTKGSLSHYVMAE, the growth estimate was < -0.25.

As to LLEPRIWGAGIVTKC, the growth estimate is < -0.25.

Turning to AWWVGRDASELMAWARGITG, the growth estimate is < -0.25.

Turning to EHLRVTYMHFGFMSTCQLPN, the growth estimate is < -0.25.

Take TDQREGPYFPVVRSVMKYR: the growth estimate is < -0.25.

For STYGLMEGKMSAAVLFMYSV, the growth estimate was < -0.25.

On to GPGNQVGGIDRTLCTTVGLL, for which the growth estimate was < -0.25.

Consider GHLGGPLNLSPFRENVGRVR, for which the growth estimate is < -0.25.

On to CHTL, for which the growth estimate is < -0.25.

For the substance LYTPGP, the growth estimate is < -0.25.

Regarding TGSYAQKGTGSSRRVSSDCM, the growth estimate is < -0.25.

As to ISPRHGDTATLNCPGDG, the growth estimate is < -0.25.

Take LTGTESDNGTNLFVYFFPTF: the growth estimate is < -0.25.

As for TRLEGRLKGRGLREIIWSLC, the growth estimate is < -0.25.

For AVVVNQR, the growth estimate was < -0.25.

As to EVISWEQRLWEPTFAQGNAF, the growth estimate is -0.231.

Turning to IIHRKQSQGV, the growth estimate was < -0.25.

With VERDTS, the growth estimate is -0.136.

On to KFRA, for which the growth estimate is < -0.25.

On to GHSLKPATTSGGGSLWIQRR, for which the growth estimate is < -0.25.

For PTG, the growth estimate was < -0.25.

As to AIK, the growth estimate is < -0.25.

Regarding DGLWTLYAGRGNRRRSVFKR, the growth estimate was < -0.25.

In the case of DPTHAWVTSLDPQNDSTG, the growth estimate was < -0.25.

Regarding TLLRTLGRCRRGHSVTDPPG, the growth estimate was < -0.25.

In the case of GVSRPLLSASSRLTTVLADC, the growth estimate is < -0.25.

Turning to CPDRPYQALPTRTVVGANGS, the growth estimate is < -0.25.

As to SNVHTINGEKYPRGGARQW, the growth estimate is < -0.25.

Consider HCS, for which the growth estimate is < -0.25.

With ESNSPGWAIV, the growth estimate was -0.246.

In the case of EMLSLEPIELHFVQA, the growth estimate is < -0.25.

As for VGGTR, the growth estimate was < -0.25.

MYGGRDMVVGLRTGL: the growth estimate is < -0.25.

As to RCHCPTSIISMRRRRGTDIQ, the growth estimate was < -0.25.

Consider RGRRDVQEDSVRGKLTLPHG, for which the growth estimate was < -0.25.

As for LASNPCPTQMGLARVRAIHS, the growth estimate is < -0.25.

In the case of MAVSESVGLAHILCV, the growth estimate was < -0.25.

For the substance RIGSSARVGPTATVETDVFW, the growth estimate was < -0.25.

In the case of GREPDREGRETYSPWAHITF, the growth estimate is < -0.25.

In the case of HICSDGVKWGQPCGSSGPPW, the growth estimate is < -0.25.

Take RDAIRTAKMAVLAHVMGQRT: the growth estimate is < -0.25.

With LCVIWQWPFQYSRSLVLLLS, the growth estimate is < -0.25.

Consider LLGLGKCGGSDSVGREDVSR, for which the growth estimate is < -0.25.

On to LLRWSPRI, for which the growth estimate was < -0.25.

Take PSVIRALPNL: the growth estimate is < -0.25.

YVLACFLAFSCTLITRPSLG: the growth estimate is < -0.25.

Consider TKTSLQGVQAKMATRIVKGA, for which the growth estimate is < -0.25.

For LEEENARTFLSIAWCHAHS, the growth estimate is < -0.25.

In the case of HIQR, the growth estimate is < -0.25.

With QPDNRPMGRAPVVSIL, the growth estimate was < -0.25.

Regarding LTYAISPARTIRTGH, the growth estimate was < -0.25.

In the case of VIHLAIPSRKGTEVG, the growth estimate is < -0.25.

Turning to DAIVAGAAHNDPDSSLN, the growth estimate is < -0.25.

Regarding GSWPTRKDGS, the growth estimate is < -0.25.

On to FLLYSNRGRG, for which the growth estimate is < -0.25.

Consider KLRYGDCPAPRYLPRDLI, for which the growth estimate is < -0.25.

Take FEPQSVSRIGH: the growth estimate was 0.0525.

Turning to LSYYIWPQGATGVE, the growth estimate is < -0.25.

On to FCRHHWGVP, for which the growth estimate was < -0.25.

With SRVRLRGAFASCSDTQWMRT, the growth estimate was < -0.25.

In the case of LLRCRCSVETKTRDYRPLAR, the growth estimate was < -0.25.

With RNYSGQLQKKVSGSASQGAA, the growth estimate is < -0.25.

On to SLTWYVLVSGCVSNSQYFVA, for which the growth estimate was < -0.25.

With VRACAF, the growth estimate is < -0.25.

For the substance KPAGGILVEEFGESLHAAGP, the growth estimate was < -0.25.

As for PVCGGSDTVWVEGKELPATS, the growth estimate was < -0.25.

IILWVIQVLAPFVKLTDLR: the growth estimate was < -0.25.

Turning to ALNAAPADFRARNPVIEVYI, the growth estimate is < -0.25.

With ISGRKLVDGCPHSRWLGRDG, the growth estimate was < -0.25.

As to SGFYGARRIII, the growth estimate is < -0.25.

Take ILLGPVSSSNQLGSGRAARQ: the growth estimate was < -0.25.

On to NTLSR, for which the growth estimate was < -0.25.

For the substance CACALPNSRCLKIQTLPTMR, the growth estimate was < -0.25.

For the substance TDWL, the growth estimate was < -0.25.

Regarding FSGGFG, the growth estimate was < -0.25.

As for SNVMPLAKVPRVNVKCVKAS, the growth estimate is < -0.25.

In the case of LPNCMGWQSKPRVANGSVTR, the growth estimate was < -0.25.

As to GIALSQPVQPPRDHATPGGI, the growth estimate is < -0.25.

Take SQPIRQSAQLDRGVLQGPQP: the growth estimate is < -0.25.

For the substance GQSPWCL, the growth estimate is < -0.25.

For VAEVRKVDSPVRVERVDKSS, the growth estimate was < -0.25.

Regarding STQQCYLS, the growth estimate was < -0.25.

As for ESAIDPETSCCVCTTEGQSY, the growth estimate was < -0.25.

Regarding IWHDVKSKGK, the growth estimate was < -0.25.

As for KQRDRP, the growth estimate was < -0.25.

On to VGLNLINDVSESLKTCQEAV, for which the growth estimate is < -0.25.

In the case of GERTNRLAGASSPVGGEW, the growth estimate is < -0.25.

With LVLTRRSTTWLRYSSTQGWK, the growth estimate is < -0.25.

As for SWSEDVRIWTSSMYRVSTTT, the growth estimate was < -0.25.

Turning to WLVSRVDSGRREVHALFRHP, the growth estimate was < -0.25.

In the case of TLDQNVSLRLVFPVKLRQGN, the growth estimate was < -0.25.

Consider ALYCGHKGGLTATG, for which the growth estimate was < -0.25.

As to IAVLVPILLKASVQTGRPYG, the growth estimate is < -0.25.

In the case of LYISPTDRSGEFLRVAWPAH, the growth estimate is < -0.25.

Consider IGKG, for which the growth estimate was < -0.25.

As to AGLPRVSLRAQVASTSVVGI, the growth estimate is < -0.25.

On to ALIL, for which the growth estimate is < -0.25.

Take YGVESV: the growth estimate was < -0.25.

With CRLSSCILLRADLPCKYHGA, the growth estimate was < -0.25.

In the case of SLSEVLDVYSLGSHGQTSNW, the growth estimate was -0.157.

For the substance VYTPGKTDT, the growth estimate is < -0.25.

With HIACAAIIAHISLGQLAGSA, the growth estimate was < -0.25.

For WLTPSTR, the growth estimate was < -0.25.

With VIRRGLCPFFSASGTIRGT, the growth estimate is < -0.25.

MKRHRAYLSASPSQRSC: the growth estimate is < -0.25.

As for LCEAMKCQNLRTGVTFNPRH, the growth estimate is < -0.25.

In the case of GEKISC, the growth estimate is < -0.25.

On to FVAGKTPASRN, for which the growth estimate is < -0.25.

Regarding PKRESEVRGSCSRALVLAYW, the growth estimate was < -0.25.

Take HRRLDQSPDLDAIRLGD: the growth estimate is < -0.25.

Consider FDSSSSFMCVCHRVILRQHP, for which the growth estimate was < -0.25.

As for ARSRRAFTWVIRYEFRKSAV, the growth estimate was < -0.25.

With EQVICTGAEQLVRGTARGKP, the growth estimate is < -0.25.

Regarding RTIWRRQRVDSCLATGHRSG, the growth estimate is < -0.25.

WTGCLRERLNTPNGISVNK: the growth estimate was < -0.25.

As to LGGIHALR, the growth estimate was -0.246.

In the case of WFI, the growth estimate was < -0.25.

Take TPPWWRVV: the growth estimate is < -0.25.

On to RSTIANYRSLRRRRKLGGSA, for which the growth estimate was < -0.25.

For the substance QAT, the growth estimate was < -0.25.

Take RGTDAEKGPSRRGNRTSRT: the growth estimate is < -0.25.

Take RITITTRQPSPLAPKFTTIP: the growth estimate was < -0.25.

As for APWLLSPGMRTSSKGLLMQG, the growth estimate was < -0.25.

Take QRSGMPFYMRGLPNEGPCSL: the growth estimate was < -0.25.

For APRKWYIASILSSPGRVS, the growth estimate is < -0.25.

For the substance LACA, the growth estimate was < -0.25.

On to LNPVSKTDQPERDVMRWFSA, for which the growth estimate was < -0.25.

Consider FSFPP, for which the growth estimate is < -0.25.

As to SREKVREKCVRMFTQRGRGA, the growth estimate is < -0.25.

On to LDLSASQRLWRASGISFAFC, for which the growth estimate was < -0.25.

Take IATDVYGSISRGALVPNWCS: the growth estimate is < -0.25.

For KAASATALSSRGPIVFFEDG, the growth estimate is < -0.25.

Regarding WINGLCLRWSQCVAAVRAPP, the growth estimate is < -0.25.

MPSGGHRSPRLNESPVAYNP: the growth estimate was < -0.25.

CSIFLLCSYCATWTYMVRAK: the growth estimate was < -0.25.

Regarding SFLSQFQDLTQFSMWRRGAR, the growth estimate was < -0.25.

On to GGTF, for which the growth estimate is < -0.25.

Turning to WPYSG, the growth estimate is < -0.25.

Take NQEY: the growth estimate is < -0.25.

In the case of ERVSVKLRWSSITVCNYHVG, the growth estimate is < -0.25.

Turning to RICKRVGVAS, the growth estimate was < -0.25.

In the case of CITVLIRVSASPVRIPSNSQ, the growth estimate was < -0.25.

On to RILAMPNLGTHNFDR, for which the growth estimate was < -0.25.

As to ASILYSLMADRDQ, the growth estimate is < -0.25.

GVYKQRADSHFYTAQRQVRV: the growth estimate is -0.202.

For KLRTLRI, the growth estimate was < -0.25.

In the case of NGFLVGRYVL, the growth estimate was < -0.25.

On to LWGGER, for which the growth estimate was < -0.25.

Source of the values: the supplement of paper PMC5949888.
